# Measured values published in PubChem BioAssay AID588499 (NMMLSC, 2011).
# Screen size: about 360,000 compounds; about 610 (0.17%) were called active. Inconclusive results, whose numbers are uncertain, are shown with a selection of clear calls. Rule as the data show it: active = inhibition above about 30%; inconclusive = no clear call, values can overlap the other calls; inactive = below that.
# Tested on: Botulinum neurotoxin type A light chain protease (Clostridium botulinum A str. ATCC 3502)
# Test: blockers of BoNT/A LC substrate cleavage – biochemical, flow cytometry, MLPCN library, primary screen (AID 588499); also: plate controls were buffer without enzyme for full effect and enzyme alone for no effect
# Conditions: multiplex microsphere protease substrate cleavage, at 10 µM, stronger effect = higher value
row,Structure (SMILES),inhibition
1,Cc1[nH]c2ccccc2c1C(=O)COC(=O)c1ccccc1O,inactive: -0.9%
2,Cc1ccc(C2C3=C(CC(C)(C)CC3=O)Nc3onc(C)c32)cc1 (stereo not given),inactive: 0%
3,CN1/C(=C\C=Nc2ccccc2)C(C)(C)c2ccccc21,inconclusive: 5.4%
4,COC(=O)C1CC(O)CN1C(=O)c1ccco1 (stereo not given),inconclusive: -3%
5,Cc1cc(C)cc(NC(=O)COC(=O)COc2cccc3c2OC(C)(C)C3)c1,inconclusive: 7.3%
6,COC(=O)C1=C(C)OC(N)=C(C#N)C1c1cc(OC)c(OCC(N)=O)cc1Cl (stereo not given),inconclusive: -2.9%
7,Cc1occc1-c1nnc(SCC(=O)c2c[nH]c3ccccc23)n1C,active: 53.5%
8,NC(=S)Nc1ccc(Cl)cc1Cl,inconclusive: -6.7%
9,Brc1ccc(-c2nn3c(-c4ccco4)nnc3s2)o1,inconclusive: 0.8%
10,COc1cccc(OCCCN2CCN(S(=O)(=O)c3ccc(NC(C)=O)cc3)CC2)c1,inconclusive: -0.5%
11,CCOc1ccccc1-n1c(SCC(N)=O)nnc1-c1ccccc1,inconclusive: -1.6%
12,Oc1ccccc1-c1nc(NC2CCCC2)c2ccccc2n1,inactive: 0.3%
13,Cc1ccc(-c2noc(CN(C(=O)c3cccs3)C(C)C)n2)cc1,inconclusive: -2.7%
14,CN(C)CCOC(=O)C12CC3CC(C1)CC(C(=O)OCCN(C)C)(C3)C2,inconclusive: 9.9%
15,COCCNC(=S)N/N=C/c1c(C)[nH]c2ccccc12,active: 42.9%
16,CNC(=S)SCCOc1ccccc1,inconclusive: -48.1%
17,COC(=O)/C=C1\NCCNC1=O,inconclusive: 2.3%
18,CC(C)C(=O)Nc1ccc(C(=O)NNC(=O)c2ccco2)cc1,inconclusive: 3.6%
19,O=C(Oc1ccc(N(Cc2cccs2)C2=NS(=O)(=O)c3ccccc32)cc1)c1ccccc1,inconclusive: -1.8%
20,CSC1=NC(C(Cl)(Cl)Cl)N=C(c2ccc(C)cc2)N1 (stereo not given),inactive: -0.1%
21,CN1CCN(C(=O)c2cccc(-c3ccc4nccn4c3)c2)CC1,inactive: -0.5%
22,Cc1oc2cc(O)ccc2c(=O)c1N1C(=O)c2ccccc2C1=O,inactive: 0.7%
23,Cc1ccc(CSc2ncn(-c3ccccc3)n2)cc1,inconclusive: -4.4%

# Not a retest: entries from further up.
row,Structure (SMILES),inhibition
13,Cc1ccc(-c2noc(CN(C(=O)c3cccs3)C(C)C)n2)cc1,inconclusive: -2.7%
14,CN(C)CCOC(=O)C12CC3CC(C1)CC(C(=O)OCCN(C)C)(C3)C2,inconclusive: 9.9%
15,COCCNC(=S)N/N=C/c1c(C)[nH]c2ccccc12,active: 42.9%

# The list continues.

row,Structure (SMILES),inhibition
1,CCn1cc(C(=O)O)c(=O)c2cnc(N3CCN(C(=S)NC(=O)c4ccc(F)c(F)c4)CC3)nc21,inconclusive: -5.4%
2,Cn1c(=O)[nH]c(=O)c2c1nc(Br)n2CCSc1nc2ccccc2o1,inconclusive: 2.6%
3,COc1ccc(/C=C/C(=O)c2ccccc2)cc1COc1ccccc1F,inconclusive: 1.6%
4,Nc1cc2c(cc1C(=O)c1ccc(Cl)cc1)OCCO2,inconclusive: -0.2%
5,N#C/C(=C\Nc1ccc(Cl)cc1)S(=O)(=O)c1ccccn1,inconclusive: -54.6%
6,Cc1cc2ccccc2n1CCNC(=O)Cc1ccccc1,active: 72.2%
7,Cn1c(N2CCOCC2)nc(-c2ccccc2)c1-c1ccccc1,inactive: -1.8%
8,COCCOn1c(SCCOC)nc2ccccc2c1=O,inconclusive: -10.2%
9,CCc1cc(=O)oc2cc(C)cc(OCC(=O)C(C)(C)C)c12,inactive: 0.5%
10,COc1ccc(C(=O)N(CN2CCCC2=O)c2ccc(C)cc2)cc1,inconclusive: 0.6%
11,O=C(N/N=C/C(Br)=C/c1ccccc1)c1cnccn1,inconclusive: -52.1%
12,Cc1cc2ncn(-c3ncnc4scc(-c5ccccc5)c34)c2cc1C,inconclusive: -4.7%
13,NNc1nnc2c3cc(F)ccc3n(Cc3ccccc3)c2n1,inconclusive: -6.5%
14,CCCCS/C(=C(/C#N)C(N)=O)c1cc2c([nH]1)CCCC2,inconclusive: -0.9%
15,CCCN1CCc2c(sc(NC(=S)NC(=O)c3ccccc3)c2C#N)C1,active: 58.1%
16,CCOc1ccc2nc(SCC(=O)NCc3ccccc3OC)[nH]c2c1,inactive: -0.1%
17,CCC(C)N(C(=O)CSc1nnc(-c2cccs2)n1C1CC1)C1CCS(=O)(=O)C1 (stereo not given),inconclusive: -0.5%
18,O=C(Nc1ccc(Cl)cc1Cl)c1csc(-c2cccnc2)n1,inconclusive: -15.9%
19,Cc1ccc(/C=C2/SC(=S)N(C3CCCCC3)C2=O)o1,active: 38.6%
20,CC1(C)NC(=O)N(CC(O)CN2C(=O)NC(C)(C)C2=O)C1=O,inactive: -0.2%
21,O=[N+]([O-])c1c(NCCCO)cc(Sc2nc3ccccc3s2)c2nonc12,inconclusive: 1.7%
22,CCOCC(O)CS(=O)(=O)c1ccccn1 (stereo not given),inconclusive: 1.6%
23,O=C(O)CSc1ccn(Cc2ccccc2)c1,inactive: -0.8%

row,Structure (SMILES),inhibition
1,COc1ccc(N(CC(=O)Nc2cc(Cl)ccc2OC)S(=O)(=O)c2c(C)noc2C)cc1,inconclusive: 2.1%
2,CCC1(c2ccc(F)cc2)NC(=O)N(CC(=O)Nc2cccc(S(=O)(=O)N3CCCCC3)c2)C1=O (stereo not given),inconclusive: -0.5%
3,COc1ccc(CCC(C)N2CCOCC2)cc1 (stereo not given),inconclusive: -3.6%
4,COC(=O)c1cnc(NNS(=O)(=O)c2ccc(C(F)(F)F)cc2)nc1C(F)(F)F,inconclusive: -3.6%
5,Cc1nn(C)cc1CNC(=O)c1ccccc1Br,inconclusive: -0.1%
6,Cc1ccc2[nH]c3c(c2c1)CN(C(=O)CN1c2ccc(F)cc2CCC1C)CC3 (stereo not given),inconclusive: 1.4%
7,O=[N+]([O-])c1ccccc1/C=C/C=N/n1c(-c2cc(-c3ccccc3)n[nH]2)n[nH]c1=S,inconclusive: 5.3%
8,Cc1cc(S(=O)(=O)NCc2ccc3c(c2)OCO3)ccc1F,inactive: 2.2%
9,CN1/C(=C\C(=O)COC(=O)CNC(=O)c2ccc3ccccc3c2)C(C)(C)c2ccccc21,inconclusive: 9.8%
10,COc1ccc(OC)c(/C=N/NC(=O)C(O)c2ccccc2)c1 (stereo not given),inactive: 0.1%
11,O=c1c(Sc2ccccc2)c(C(F)(F)F)[nH]n1-c1ccccc1,inconclusive: 0.1%
12,CCC(=O)Nc1ccc(N/C(N)=N/c2nc(C)cc(C)n2)cc1,inconclusive: -4.3%
13,CCOC(=O)C1CCCN(Cc2cccc(Oc3ccccc3)c2)C1 (stereo not given),inconclusive: -3.5%
14,CC1C(=NO)C(C)C(c2ccccc2)NC1c1ccccc1 (stereo not given),inconclusive: 3.7%
15,COc1ccc(CNC(=O)/C=C/C(=O)O)cc1,inconclusive: -25%
16,N=c1c(S(=O)(=O)c2ccc(Cl)cc2)cc2c(=O)n3ccccc3nc2n1CCc1ccccc1,inactive: 2.9%
17,COC(=O)c1cccc(NS(C)(=O)=O)c1,inconclusive: -49.9%
18,COc1cc(Cl)c(S(=O)(=O)n2cnc(C)c2)cc1Cl,inconclusive: -1.6%
19,CCC(C)C(N)C1=NC(C(=O)N[C@@H](CC(C)C)C(=O)N[C@H](CCC(=O)O)C(=O)N[C@H](C(=O)N[C@H]2CCCCNC(=O)[C@H](CC(N)=O)NC(=O)[C@@H](CC(=O)O)NC(=O)[C@H](Cc3cnc[nH]3)NC(=O)[C@@H](Cc3ccccc3)NC(=O)[C@H]([C@@H](C)CC)NC(=O)[C@@H](CCCN)NC2=O)[C@@H](C)CC)CS1 (stereo not given in full),inactive: -0.8%
20,CCOC(=O)Cc1c(C)nc2c(-c3ccccc3)c(-c3ccccc3)[nH]n2c1=O,inconclusive: 2%
21,COC(=O)c1ccc(CSc2ncn[nH]2)o1,inconclusive: 2.3%
22,CCOC(=O)Cn1c(-c2cccnc2Cl)nc2cc(Cl)c(Cl)cc21,inconclusive: 4%
23,Cc1ccc(C)c(NC(=O)CN(C)C(=O)c2cccc(-n3cccc3)c2)c1,inconclusive: 0.2%

row,Structure (SMILES),inhibition
1,O=C(Nc1ccon1)C(Sc1ccccc1)c1ccccc1 (stereo not given),inconclusive: -0.7%
2,Cc1c(NC(=O)CN2CCCc3ccccc32)c(=O)n(-c2ccccc2)n1C,inconclusive: 0.3%
3,COc1ccc2c(c1)c(C(C)=O)c(C)n2-c1ccccc1OC,inconclusive: 3.4%
4,CCC(C)COC(=O)C(C#N)c1nc2ccccc2nc1N1CCCCC1 (stereo not given),inconclusive: 11.7%
5,Cc1[nH]n(-c2ccccc2)c(=O)c1C1(C(F)(F)F)C(=O)N(c2ccccc2)C2=C1C(=O)CC(C)(C)C2 (stereo not given),inconclusive: 2%
6,COc1ccc(NC(=O)c2ccc(Br)c(S(=O)(=O)N3CCOCC3)c2)cc1,inactive: -5.6%
7,COc1cc(CC(=O)Nc2nccs2)cc(OC)c1OC,inconclusive: -1.6%
8,C=CCSC1=C(C#N)C2(CCCCC2)C(C#N)C(=O)N1 (stereo not given),inconclusive: 0.7%
9,Cc1c(C(C)NC(=O)Nc2ccc(F)cc2F)cnn1C (stereo not given),inconclusive: -14.1%
10,Cc1cc(Br)cc(Br)c1OCC(=O)NNC(=O)Nc1ccccc1,inconclusive: -6.7%
11,CCCCC(=O)NC(=S)Nc1ccccc1C(=O)Nc1ccccc1,inconclusive: 16.6%
12,Nc1nc(SCC(=O)Nc2ccc(S(N)(=O)=O)cc2)n[nH]1,inactive: 0.5%
13,CCC(C(=O)NCc1ccccc1OC)c1ccccc1 (stereo not given),inactive: 0.1%
14,Cc1cccc(NC(=S)N/N=C/c2ccc([N+](=O)[O-])s2)c1,active: 87.9%
15,COC(=O)c1ccc2nc(-c3ccco3)c(Cc3cccc(F)c3)n2c1,inactive: 2.6%
16,CC(C(=O)Nc1ccc(O)cc1C(=O)O)N1C(=O)/C(=C\c2cccs2)SC1=S (stereo not given),inconclusive: -1.6%
17,Cc1nc(N)nc(COc2ccccc2)n1,inconclusive: 2.9%
18,C/C(Cl)=C\Cn1c(NCCc2ccccc2)nc2c1c(=O)n(C)c(=O)n2C,inconclusive: 1.5%
19,CCN1CCc2c(sc(NC(=O)c3ccc(S(=O)(=O)N4CCCC4)cc3)c2C(=O)NC)C1,inconclusive: 10.2%
20,COCC(=O)NC1CCCCCC1,inconclusive: -12.4%
21,CN(C)c1nc2c(c(=O)[nH]c(=O)n2C)n1Cc1ccccc1Br,inconclusive: 4.6%
